For at least one compound, name, drawing or mass did not settle the structure.
System: S. aureus MP-12
Format: cell-based
Set-up: key to the marks not given beside the values

Q: For `CO[C@]1(C)C[C@@H](C)CN(C)[C@H](C[C@H]2C[C@H](N(C)CC(C)C)C2)COC(=O)C(C)(C)C(=O)[C@H](C)[C@H]1O[C@@H]1O[C@H](C)C[C@H](N(C)C)[C@H]1O` [Compound 134, (3R,6R,8R,9R,10R)-9-(((2S,3R,4S,6R)-4-(dimethylamino)-3-hydroxy-6-methyltetrahydro-2H-pyran-2-yl)oxy)-3-(((1r,3S)-3-(isobutyl(methyl)amino)cyclobutyl)methyl)-8-methoxy-4,6,8,10,12,12-hexamethyl-1-oxa-4-azacyclotridecane-11,13-dione], which “MIC S. aureus MP-12” value is on record?
A: ++
